Assay results as given in US20230173135A1 (priority 2020, published 2023).
Some peptides are written in HELM: one residue between dots, names in brackets for other building blocks, links after the first $.

Assay: peptide made by a vendor
Details: whole synthesis

Substance: PEPTIDE1{L.L.G.D.F.F.R.K.S.K.E.K.I.G.K.E.F.K.R.I.V.Q.R.I.K.D.F.L.R.N.L.V.P.R.T.E.S.C}$$$$V2.0
- purity (crude or final not stated): 96%
